Assay results from patent US9920295B2, “Bioreactor for isolation of rare cells and methods of use” (The Trustees of the University of Pennsylvania, priority 2012, dated 2018).

Tests used:
Type in all cases: cell-based, human
[1] = system: CD34+-derived cells (HSC, MPP, CPP); experiment: AHR antagonist dose-response on HSC/P subpopulation number
Experimental: Freshly purified bone marrow-derived human CD34^+ cells were obtained from either the Penn Xenograft Core Facility or AllCells (Emeryville, Calif.). Cells from at least 20 different donors were used in this study. Purity of the samples (>98%) was confirmed by flow cytometry with monoclonal antibody against human CD34. All experiments were performed in HSC expansion media (StemLine, Sigma) supplemented with 1× antibiotics, 20% BIT 9500 Serum Substitute (StemCell Technologies), 2 mM […] (Gibco) and the following human recombinant cytokines: SCF (100 ng/ml) and Tpo (100 ng/ml). In some occasions, the media was also supplemented by G-CSF (100 ng/ml), epidermal growth factor (EGF, 100 ng/ml), transforming growth factor beta 1 (TGF-beta1, 100 ng/ml), erythropoietin (EPO, 1 U/ml) and interleukin-3 (IL-3, 10 ng/ml). All cytokines were purchased from R&D Systems. After cells were cultured for 4 days, they were treated with different doses of cellular contractility inhibitors, including (±)-Blebbistatin (Bleb) (EMD Biosciences) and/or CH-223191 (Sigma) for indicated durations of up to 3 days. Cells were cultured at 37° C. in 5% CO2.
Surface marker analysis for HSC/Ps was done on either a LSR II flow cytometer or FACSCalibur (Becton Dickinson). […] Cells isolated from the bone marrow stained for 1 hr with APC anti-mouse CD47 (miap301, AbD Serotec), FITC anti-human CD47 (BD Biosciences), and PE anti-human CD11b, PE anti-human CD19 (both from BD Biosciences), or PE anti-human Glycophorin A (Invitrogen). Plts and RBCs were analyzed by staining with PE anti-mouse CD41 (eBioscience) and FITC anti-human CD41 (eBioscience) for 20 min, followed by analysis on FACSCalibur on log forward and side scatter scales.

[2] = system: BM CD34+-derived cells (CD41+ MK); experiment: Ploidy analysis of CD34+-derived cells treated with contractility inhibitors (flow cytometry)
Experimental: Fresh purified bone marrow (BM)-derived humanCD34^+ cells were obtained from either the Penn Xenograft Core Facility or AllCells. Cells from at least 10 different donors were used in this study. Purity of the samples (>98%) was confirmed by flow cytometry with monoclonal antibody against human CD34 conjugated to phycoerythrin (PE). All experiments were performed in hematopoietic stem cell (HSC) expansion media (StemLine-II; Sigma) supplemented with 1× antibiotics, and the following human recombinant cytokines SCF (100 ng/mL) and Tpo (100 ng/mL). In some occasions, the media was also supplemented by G-CSF (100 ng/mL). All cytokines were purchased from R&D Systems. After cells were cultured for 4 days, they were treated with different doses of cellular contractility inhibitors, including (±)-blebbistatin (EMDBiosciences), reversine, ML-7, and Y-27632 (Sigma) for indicated durations of up to 3 days. Unfortunately, longer exposure to drug proves toxic even to polyploidy cells under the present culture conditions. Cells were then resuspended in PBS/2% FBS medium and subjected to ploidy analysis: cells were stained with CD41-FITC (BD Biosciences) at room temperature for 30 min, followed by Hoechst 33342 at 37° C. for 30 min. Then cells were stained with Annexin-V-PE (BD Biosciences) in the Annexin-V staining medium, followed by addition of 7-AAD. Stained cells were subjected to flow cytometric analysis (LSR-II; BD Biosciences): only viable cells (7-AAD^− and Hoechst 33342^+) were analyzed for ploidy. Cells with the DNA content of 8 N or higher were considered polyploid. To quantify absolute number of polyploid cells, viable cell number was counted before flow cytometry by Trypan blue exclusion, and this number was multiplied by percentages of each DNA compartment and subpopulations. Each multiplied number was then normalized by initial cell input number before drug treatment in culture.

[3] = system: CD34+-derived cells (CFU-GM, BFU-E); experiment: Colony forming assay
Experimental: 1000-3000 CD34^+-derived cells were seeded into methylcellulose containing media (MethoCult H4434, StemCell Technologies) supplemented with SCF, GM-CSF, IL-3, Epo. They were cultured for 14 days and colonies were scored at 10× magnification based on the published morphological criteria by StemCell Technoloigies. Colony forming content was normalized per 10,000 cells seeded.

For `Cc1ccccc1N=Nc1ccc(NC(=O)c2ccnn2C)c(C)c1` [CH-223191], the “Hill coefficient, CPP number” value ([1]; untreated and Bleb, for both) was 2.0, the “Hill coefficient, MPP number” value ([1]; untreated and Bleb, for both) was 1.0 and the “Hill coefficient, HSC number” value ([1]; with 20 μM Bleb) was 1.0. The “Hill coefficient, HSC number” value ([1]; without Bleb) was 1.5.

In the case of `Cc1ccc2c(c1)C(=O)C1(O)CCN(c3ccccc3)C1=N2` (racemic) [blebbistatin, (±)-blebbistatin], the “Hill coefficient, ratio polyploid MKs to 2n+4n MKs” value [2] is reported as 7.0, the “Hill slope, MK polyploid cell number curve” value [2] is reported as 7.0 and the Hill exponent n ([2]; MK responses in drug concentration) is reported as roughly 7. The “Hill slope, CD41+ MK and non-MK polyploid cell number” value ([2]; treatment for 3 d) was 7.0, the “Hill coefficient, BFU-E” value [3] was −20 and the “Hill coefficient, CFU-GM” value [3] was −6. For the same molecule, the “Hillslope, BFU-E relative to CFU-GM” value ([3]; absence of Epo) was 5.0.

With `O=S(=O)(c1cccc2c(I)cccc12)N1CCCNCC1` [ML7, ML-7] the “Hill slope, MK polyploid cell number curve” value [2] was −4.74, the “Hill slope, MK cell number in 2 N” value [2] was −0.93 and the “Hill slope, MK cell number in 4 N” value [2] was −0.8.

In the case of `C[C@@H](N)[C@H]1CC[C@H](C(=O)Nc2ccncc2)CC1` [Y-27632], the “Hill slope, MK polyploid cell number curve” value [2] is reported as 1.0.

For `c1nc2nc(Nc3ccc(N4CCOCC4)cc3)nc(NC3CCCCC3)c2[nH]1` [reversine], the “Hill slope, MK polyploid cell number curve” value [2] was 10.8, the “Hill slope, MK cell number in 2 N” value [2] was −2.0 and the “Hill slope, MK cell number in 4 N” value [2] was −1.6.
